The record followed here is PubChem BioAssay AID248 (DTP/NCI, 2004).

The subject of the assay is L1210 leukemia ip in BDF1 mice, survival T/C. The experiment in a line: NCI In Vivo Anticancer Drug Screen. Data for tumor model L1210 Leukemia (intraperitoneal) in B6D2F1 (BDF1) mice. Conditions: T/C endpoint: mean survival time, higher T/C = longer survival.
[1] abbreviates: dose: 200.0 mg/kg/injection, schedule: Q04DX003 (ip), vehicle: saline.
Setting [2] is: dose: 400.0 mg/kg/injection, schedule: Q04DX003 (ip), vehicle: saline.

The list is a part of this screen's results and no random one: it is rich in T/C values a quarter to a half above the control, in often repeated tests (any T/C) and in doses without a T/C. Further doses and runs are listed elsewhere. T/C gives the treated animals as a percentage of the vehicle group. Some doses have a count of surviving animals in place of a T/C: the source holds a T/C of zero for them, seemingly a mark for toxic or unscored doses. Some survivor counts are full or nearly so, which does not show that the dose was tolerated: survival well below the control is almost never listed, so the zero probably covers shortened survival too. Counts of survivors are from the toxicity check (mostly the fifth day) where no day follows; animals may have died later. Schedules are NCI's codes, read here as Q, the interval in days (D) or hours (H), X, the number of doses. Some schedule codes hold Z or #, which are not explained here. For survival time, this PubChem deposit counts one and a half times the control or more as active, and values a quarter to a half above the control carry no call in these data; other NCI protocols may use other cut-offs. Some T/C values carry the count of animals alive at the toxicity check (mostly the fifth day); without a count, all were alive then. Some entries hold several experiments; their values stand side by side, smallest first.

On to `CO[C@H]1C[C@H](O[C@H]2CC[C@]3(C=O)[C@H]4CC[C@]5(C)[C@@H](C6=CC(=O)OC6)CC[C@]5(O)[C@@H]4CC[C@]3(O)C2)O[C@H](C)[C@H]1O[C@@H]1O[C@H](CO[C@@H]2O[C@H](CO)[C@@H](O)[C@H](O)[C@H]2O)[C@@H](O)[C@H](O)[C@H]1O`, for which the survivor count is 0 of 6 (dose: 2.5 mg/kg/injection, schedule: Q01DX001 (sc), vehicle: steroid suspending solution); 0 of 6 (dose: 4.0 mg/kg/injection, schedule: Q01DX001 (sc), vehicle: steroid suspending solution); 1 of 6 (dose: 5.0 mg/kg/injection, schedule: Q01DX001 (sc), vehicle: steroid suspending solution); 0 of 6 (dose: 10.0 mg/kg/injection, schedule: Q01DX001 (sc), vehicle: steroid suspending solution).

Consider `CCN=C1N[N+]2=CCCCC2S1` (stereo not given), for which the T/C under setting [1] was 127 % of control.

As to `Cc1cc(=O)c(Cl)cc(=O)[nH]1`, the survivor count reads like this: (dose: 100.0 mg/kg/injection, schedule: Q01DX001 (ip), vehicle: saline with Tween-80) 1 of 3; (dose: 200.0 mg/kg/injection, schedule: Q01DX001 (ip), vehicle: saline with Tween-80) 0 of 3; (dose: 400.0 mg/kg/injection, schedule: Q01DX001 (ip), vehicle: saline with Tween-80) 0 of 3.

`c1cc[c]([Pb]([c]2ccccc2)([c]2ccccc2)[n]2cnc3cncnc32)cc1`: the survivor count reads like this: (dose: 20.0 mg/kg/injection, schedule: Q01DX001 (ip), vehicle: other) 3 of 6; (dose: 40.0 mg/kg/injection, schedule: Q01DX001 (ip), vehicle: other) 1 of 6; (dose: 80.0 mg/kg/injection, schedule: Q01DX001 (ip), vehicle: other) 0 of 6; (dose: 100.0 mg/kg/injection, schedule: Q01DX001 (ip), vehicle: other) 0 of 6; (dose: 200.0 mg/kg/injection, schedule: Q01DX001 (ip), vehicle: other) 1 of 6; (dose: 400.0 mg/kg/injection, schedule: Q01DX001 (ip), vehicle: other) 1 of 6.

For the compound `COC(=O)/C=C(\C)C(C)=Nc1ccccc1`, where the note is “dose: 400.0 mg/kg/injection, schedule: Q04DX003 (ip), vehicle: saline with Tween-80”, the survivor count is reported as 1 of 6.

With `CCN(CCN)c1cccc(C)c1`, the survivor count runs as follows: (dose: 200.0 mg/kg/injection, schedule: Q04DX003 (ip), vehicle: saline sonified) 6 of 6; (dose: 400.0 mg/kg/injection, schedule: Q04DX003 (ip), vehicle: saline sonified) 0 of 6.

Consider `CC(N)c1ccccc1` (stereo not given) (tested in a mixture with another compound), for which the survivor count (dose: 200.0 mg/kg/injection, schedule: Q01DX009 (ip), vehicle: saline) is on record as 3 of 3.

With `NC(N)=N/N=C(/C(=N\N=C(N)N)c1ccco1)c1ccco1`, the survivor count runs as follows: (dose: 30.0 mg/kg/injection, schedule: Q01DX Z (ip), vehicle: methylcellulose (MC)) 0 of 6; (dose: 60.0 mg/kg/injection, schedule: Q01DX Z (ip), vehicle: methylcellulose (MC)) 0 of 6; (dose: 60.0 mg/kg/injection, schedule: Q01DX Z (oral), vehicle: methylcellulose (MC)) 0 of 6; (dose: 120.0 mg/kg/injection, schedule: Q01DX Z (ip), vehicle: methylcellulose (MC)) 0 of 6.

Take `CCCCCC(=O)N(CCCC)CCCC`: for the setting “dose: 400.0 mg/kg/injection, schedule: Q01DX009 (ip), vehicle: carboxymethylcellulose (CMC)”, the survivor count is 2 of 3.

Regarding `C=CC[P+](Cc1ccccc1)(c1ccccc1)c1ccccc1`, the survivor count is listed as 0 of 3 (dose: 25.0 mg/kg/injection, schedule: Q01DX009 (ip), vehicle: saline with Tween-80); 0 of 3 (dose: 50.0 mg/kg/injection, schedule: Q01DX009 (ip), vehicle: saline with Tween-80); 0 of 3 (dose: 100.0 mg/kg/injection, schedule: Q01DX009 (ip), vehicle: saline with Tween-80); 0 of 3 (dose: 200.0 mg/kg/injection, schedule: Q01DX009 (ip), vehicle: saline with Tween-80).

With `CC(=O)NC(C)CC(C)C` (stereo not given), under setting [2], the survivor count is reported as 0 of 6.

In the case of `CC[C@H]1CN2CCc3cc(OC)c(OC)cc3[C@@H]2C[C@@H]1C[C@@H]1c2cc(OC)c(OC)cc2CCN1N=O`, the survivor count under setting [1] is recorded as 6 of 6 and the survivor count under setting [2] is on record as 0 of 6.

With `CC(=O)Nc1ccc2nc3ccc(NC(C)=O)cc3[n+](-c3ccccc3)c2c1`, the T/C was 135 % of control (dose: 1.0 mg/kg/injection, schedule: Q01DX Z (ip), vehicle: methylcellulose (MC)); 138 % of control (dose: 2.0 mg/kg/injection, schedule: Q01DX Z (ip), vehicle: methylcellulose (MC)); 129 % of control (dose: 3.1 mg/kg/injection, schedule: Q01DX Z (ip), vehicle: methylcellulose (MC)); 131 % of control (dose: 6.25 mg/kg/injection, schedule: Q01DX Z (ip), vehicle: methylcellulose (MC)); 126 % of control (dose: 10.0 mg/kg/injection, schedule: Q01DX Z (ip), vehicle: saline); 129 % of control (dose: 10.0 mg/kg/injection, schedule: Q#A X Z (ip), vehicle: saline). Moreover, the T/C (dose: 12.0 mg/kg/injection, schedule: Q01DX009 (ip), vehicle: saline) was 141 % of control; the T/C (dose: 17.5 mg/kg/injection, schedule: Q07DX Z (ip), vehicle: saline) was 132 % of control; the T/C (dose: 25.0 mg/kg/injection, schedule: Q01DX009 (ip), vehicle: saline) is 147 % of control; the T/C (dose: 30.0 mg/kg/injection, schedule: Q03DX Z (ip), vehicle: saline) was 134 % of control; the T/C (dose: 31.25 mg/kg/injection, schedule: Q01DX009 (ip), vehicle: saline) was 141 % of control; the T/C (dose: 31.3 mg/kg/injection, schedule: Q01DX009 (ip), vehicle: saline) is 141 % of control. Besides, the T/C reads like this: (dose: 35.0 mg/kg/injection, schedule: Q07DX Z (ip), vehicle: saline) 136 % of control; (dose: 60.0 mg/kg/injection, schedule: Q03DX Z (ip), vehicle: saline) 134 and 148 % of control; (dose: 62.5 mg/kg/injection, schedule: Q01DX009 (ip), vehicle: saline) 142, 162, 163, 198 % of control; (dose: 70.0 mg/kg/injection, schedule: Q07DX Z (ip), vehicle: saline) 129 % of control; (dose: 120.0 mg/kg/injection, schedule: Q03DX Z (ip), vehicle: saline) 145 % of control; (dose: 125.0 mg/kg/injection, schedule: Q01DX009 (ip), vehicle: saline) 192, 203, 214, 256 % of control. The T/C runs as follows: (dose: 140.0 mg/kg/injection, schedule: Q07DX Z (ip), vehicle: saline) 136 % of control; (dose: 177.0 mg/kg/injection, schedule: Q01DX001 (ip), vehicle: saline) 148 % of control; (dose: 240.0 mg/kg/injection, schedule: Q03DX Z (ip), vehicle: saline) 141 % of control; (dose: 250.0 mg/kg/injection, schedule: Q01DX009 (ip), vehicle: saline) 110, 130, 140 [5 of 6 alive], 156 % of control [4 of 6 alive]; (dose: 266.0 mg/kg/injection, schedule: Q01DX001 (ip), vehicle: saline) 128 % of control; (dose: 280.0 mg/kg/injection, schedule: Q07DX Z (ip), vehicle: saline) 147 % of control. The T/C runs as follows: (dose: 400.0 mg/kg/injection, schedule: Q01DX001 (ip), vehicle: saline, evaluated on day 30) 133 % of control; (dose: 400.0 mg/kg/injection, schedule: Q01DX001 (ip), vehicle: saline, run until all animals had died) 129 % of control; (dose: 500.0 mg/kg/injection, schedule: Q01DX Z (oral), vehicle: saline) 133 % of control; (dose: 600.0 mg/kg/injection, schedule: Q01DX001 (ip), vehicle: saline, evaluated on day 30) 126 % of control; (dose: 600.0 mg/kg/injection, schedule: Q01DX001 (ip), vehicle: saline, run until all animals had died) 145 % of control; (dose: 1125.0 mg/kg/injection, schedule: Q01DX Z (oral), vehicle: saline) 127 % of control.
